Assay results: PMC11712023

Amino acid sequences for entries named in this document (tags omitted). A change or cut given only in a name is not applied to a line headed by its entry.
UniProt Q9SW41: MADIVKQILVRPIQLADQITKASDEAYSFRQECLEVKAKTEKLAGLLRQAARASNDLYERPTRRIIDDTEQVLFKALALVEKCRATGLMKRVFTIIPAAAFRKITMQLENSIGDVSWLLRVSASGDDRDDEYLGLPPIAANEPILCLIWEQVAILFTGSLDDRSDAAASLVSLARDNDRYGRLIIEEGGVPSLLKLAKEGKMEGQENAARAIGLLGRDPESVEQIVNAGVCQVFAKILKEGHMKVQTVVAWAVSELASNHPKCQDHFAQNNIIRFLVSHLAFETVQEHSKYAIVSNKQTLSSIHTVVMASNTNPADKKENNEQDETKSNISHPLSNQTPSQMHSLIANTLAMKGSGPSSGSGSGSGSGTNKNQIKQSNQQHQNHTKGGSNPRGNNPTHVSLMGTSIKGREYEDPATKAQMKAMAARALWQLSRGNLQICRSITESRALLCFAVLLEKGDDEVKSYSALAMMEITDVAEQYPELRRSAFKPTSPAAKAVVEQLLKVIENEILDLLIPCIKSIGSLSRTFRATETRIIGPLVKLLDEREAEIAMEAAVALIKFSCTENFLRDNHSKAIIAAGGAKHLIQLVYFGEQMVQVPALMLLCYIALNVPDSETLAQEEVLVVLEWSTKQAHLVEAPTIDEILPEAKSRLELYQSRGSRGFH

B1: exocyst complex subunit SEC8 (protein, UniProt Q93YU5 1-1053)
chain: MGIFNGLPVPSDKTYLREELARIDESWAAARFDSLPHVVHILTSKDREADIHILKEQSDVVEEVVDEVVHAYHGGFNKAIQNYSQILRLFSESTEKIGDLKHDLAEAKQSLGARNKQLHQLWYRSVTLRHIISLLDQIEGIAKVPSRIEKLIADKQFYAAIQVYLQSSLMLEREGLQTVGALQDVRSELTKLRGALFFKILDDLHAHLYNRGEYSSVASSIYERDDEVPTTTAVAASRMSSQPLSRRTRTLKGDSQFGVRGLTNGSYRTASNDESSSFDGHDEEDSVEHDESTADTARNGTDSKLLSHQLPPWLSDSTPDEFIEAVRKSDDPLHVKYLQTLVQCLCMLGKVAAAGAIICQKLRPTIHEIIISKIKAHLETTNLSKSACSQGDRSVAAGLHLIKGQSEAYRLSKEKPQNGISNSGTHLAVSPVSPLMAPGGKAQAAAKELLDSILDTIVKIFENHVVIGELLEMKASQHDINTPRSLPTDVNWNTESEASQATGGYTISFPLTVLQSECQQLICEILRATPEAASADAAAQTAKLAKKAPKKDKRDAPEDGLTFTFRFTDATVSISNQGADLIRQGWGKRAPNASLEGYGSAAVLPEQGIYLAASIYRPVLQFTDKITSMLPKKHSQLVNDGLLTFTENFVKDHLLPTMFVDYRKGVQQAISSAAAFRPRAHTTTYTATVEKGRPILQGLLAIDLLAKEVLGWAQAMPKFATDLVKYVQTFLERTFERCRTSYMEAVLEKLSYMLIGRHDIEKLMRLDAASACLPSTLGHAVSHSEAVGTEVELSDLFLSLRPIKQDNLIRDDNKLILLASLSDSLEYVADSIERLGQAVPRVASQAEGNSRNQAASPRNLASFADEYRKLATDCLKVLRVEMQLETVFHLQEMTNREYLEDEDAEEPDDFVISLTSQITRREEGMAPFISGEKRNYVFGGISGIAANASIKALADMRSINLFGVQQICRNTIAVEQAMAAIPYIDGETVQQNLDRVRTYFELLNMPFEALLAFIAEHDQMFTPTEYSNLLKVNVPGRDTPSDAQSRLLEILSH
B2: exocyst complex subunit SEC5B (protein, UniProt F4HWE6 1-1090)
chain: MSSSDDLDEDELLQMALKEQSQRDVTYQKPPSANSRKPVTNLVQQPRRQKRAAAPPSKGGAKASRKPSMDEDDESEVELLSISSGDEDEGNDRGRGGGGDGGGGRGRGGSGKERGRARKEDDRAWDGVEPDCWKRVNEAELARKVRDMRESRTAPSVTQNLDRKVSGADKKVVLTSLQSFPRGMECIDPLKLGIIDNKTLRLITESSESLSKAEKVDNALREKLVYTSDHFDPKLFISRIHQETSAADLESGALALKSDLKGRNLQRKQLVKDNFDCFVSCKTTIDDIESKLKRIEDDPDGSGTTHLFNCMKSVTSRANRAFEPLFERQAQAEKIRSVQGMLQRFRTLFNLPSIIRSSISKGEYDLAVREYKKAKSIALPSHVNLLKRVLEEVEKVMQEFKGTLYRSMEDPKIDFTSLENTVRLLLELEPESDPVWHYLNVQNHRIHGMLEKCTFDHEARMEILRNQVHERALSDAKWRQIQQNGVQLSDDTSSMEDNQVQVDQPLEESARREKDALRGRYIKILTAVIVYHLPTFWKTALSVFTGKFAKSSQVNDTSASKAEEKAEEARYSSHSLEEIAGMIRNTISVYEAKVQSTFHDFDESYILHPYMSDTIKEVSKACQAFEAKESAPHSAVMALRKVKVEITKIYIQRLCSWMRASTEEISKEETWIPVSILERNRSPYSISYLPLAFRSIIVSGMEQINMMILSLKGEAARSEDMFAHIEEILISVRLAFLNCFLDFAAHLEQIGADLSQRTTKRESWQNGYSNDHQEEQSINAPESVVDPHRQLLMILSNIGYCKDELASELYNKYKYTWLQSRRNDEDISDLQDLMMSFSGLGEKVLEHYTFAKANLIRTAATNYLLDSGIQWGAAPPVKGIRDAAVELLHTLVAVHAEVFAGAKPLLDKILGTLVEGLIDTFLSLLDENRSDDLSSIDANGFCQLMLELEYFETILKPYLTVDATESLKSLQGAVLEKAIESISETVENNPGGHQRKPTRGSEDAISDDKQSSVSPDDLLALAQQCTSGMLQLELEKTRLNSACFIETIPLDPVPPVAKAAYSRTSTDSPSRNYRESQPMGSPVQARPRRR

Each molecule was assayed against Arabidopsis thaliana VPS13a fused to Venus (AtVPS13a:Venus) (Arabidopsis thaliana) (assay: affinity purification with mass spectrometry; co-immunopurification (co-IP) of crude pollen proteins from the GT-AtVPS13a:Venus line; wild type as control; proteins uniquely detected in the AtVPS13a:Venus fraction listed).
For “Armadillo Repeat Only1 (ARO1) (from UniProt Q9SW41)”, the binding was “binds”. B1 was tested, and the binding was “binds”. For B2, the binding was “binds”.

These are yes or no findings as the source states them, for the method shown. Binding seen in cells or lysates may run through a third protein. Here binding means that the protein was enriched with, or labelled near, the bait; the list need not be complete.
